{"source": "patent US5310469A", "about": "“Biosensor with a membrane containing biologically active material” (Abbott Laboratories, priority 1991, dated 1994)", "key": {"[1]": {"assay": "Selectivity of amperometric glucose sensor, flow-injection mode (TABLE 4B)", "settings": "for Relative Response: relative to glucose"}, "[2]": {"assay": "Relative response of sensor stored in pH 7.5 buffer (TABLE 4D)"}}, "data": [{"smiles": "O=C1O[C@H]([C@@H](O)CO)C(O)=C1O", "note": "[AA, ascorbic acid]", "values": [{"measurement": "Response", "setting": "[1]", "value": 3.39, "unit": "nA/mM"}, {"measurement": "Relative Response", "setting": "[1]", "value": 6.7, "unit": "%"}]}, {"smiles": "Nc1ccc(C(=O)O)c(O)c1", "note": "[AHB, 4amino-2-hydroxybenzoic acid]", "values": [{"measurement": "Response", "setting": "[1]", "value": "< 0.05", "unit": "nA/mM"}, {"measurement": "Relative Response", "setting": "[1]", "value": "< 0.1", "unit": "%"}]}, {"smiles": "CC(=O)Nc1ccc(O)cc1", "note": "[APAP, 4-acetamidophenol]", "values": [{"measurement": "APAP/H202 × 100", "setting": "[2]; Day 1 (first line)", "value": 0.032}, {"measurement": "APAP/H202 × 100", "setting": "[2]; Day 1 (second line)", "value": 1.34}, {"measurement": "APAP/H202 × 100", "setting": "[2]; Day 10", "value": 3.07}, {"measurement": "APAP/H202 × 100", "setting": "[2]; Day 16", "value": 3.4}, {"measurement": "APAP/H202 × 100", "setting": "[2]; Day 55", "value": 63}, {"measurement": "Response", "setting": "[1]", "value": 1.10, "unit": "nA/mM"}, {"measurement": "Relative Response", "setting": "[1]", "value": 2.2, "unit": "%"}]}, {"smiles": "N[C@@H](Cc1ccc(O)c(O)c1)C(=O)O", "note": "[DOPA, Lbeta-3,4-dihydroxyphenylalanine]", "values": [{"measurement": "Response", "setting": "[1]", "value": 4.53, "unit": "nA/mM"}, {"measurement": "Relative Response", "setting": "[1]", "value": 9.0, "unit": "%"}]}, {"smiles": "COc1ccccc1O", "note": "[GA, guaiacol]", "values": [{"measurement": "Relative Response", "setting": "[1]", "value": 4.3, "unit": "%"}]}, {"smiles": "O=C(O)c1cc(O)ccc1O", "note": "[GT, gentisic acid]", "values": [{"measurement": "Response", "setting": "[1]", "value": "0.15-0.9 nA/mM"}, {"measurement": "Relative Response", "setting": "[1]", "value": 0.3, "unit": "%"}]}, {"smiles": "OC[C@H]1OC(O)[C@H](O)[C@@H](O)[C@@H]1O", "note": "(stereo partly shown) [Glucose]", "values": [{"measurement": "Response", "setting": "[1]", "value": 50.4, "unit": "nA/mM"}]}, {"smiles": "OO", "note": "[H2 O2, hydrogen peroxide]", "values": [{"measurement": "Response", "setting": "[1]", "value": 256, "unit": "nA/mM"}]}, {"smiles": "Oc1ccccc1O", "note": "[Py, pyrocatechol]", "values": [{"measurement": "Relative Response", "setting": "[1]", "value": 9.2, "unit": "%"}]}, {"smiles": "NC(=O)c1ccccc1O", "note": "[SALA, salicylamide]", "values": [{"measurement": "Relative Response", "setting": "[1]", "value": 6.7, "unit": "%"}]}, {"smiles": "O=c1[nH]c(=O)c2[nH]c(=O)[nH]c2[nH]1", "note": "[Uric Acid]", "values": [{"measurement": "Response", "setting": "[1]", "value": 1.05, "unit": "nA/mM"}, {"measurement": "Relative Response", "setting": "[1]", "value": 2.12, "unit": "%"}]}]}
